Some of the results follow.
B1: il10ra_site1_normal_mot_HHH_b1_03031_af2_000000117_0001_17_33_H_._HHH_b1_01503_af2_0001_0000500014_0000001_0_af2pred_0001 (protein)
chain: SSSSDEERLEELEERAKELIEEGDHEEAKKVLLEALFLAAKLKDPEVILKLLRLTAEVLQLSSSS
B2: il10ra_site1_sap_15_mot_HHH_b2_01205_000000166_0001_1_19_H_._HHH_b1_04361_0001_0000300020_0000001_0_0001_af2pred_0001 (protein)
chain: SSSSDEDEKRAELTARFARHAYEQGDEEAAKYLLKAAVEILRKAGNEELVEELEEILRQISSSSS
B3: il10ra_site1_normal_mot_HHH_b1_05326_000000242_0001_1_20_H_._HHH_b1_01966_0001_0000100019_0000001_0 (protein)
chain: SSSSSDNEEALHLSVEAFRLLLRGDPEEARRVLEEALELAEEAGNERLARIIEEQLRLASSSSSS
B4: il10ra_site1_normal_mot_HHH_b1_02997_000000220_0001_39_52_H_._HHH_b1_02580_0001_0000100023_0000001_1 (protein)
chain: SSSSTEESHRIYELLRRAAELRHEGNPEEARELLEEAEELAEEAGNENFLWNIEYLLREVNSSSS
B5: il10ra_site1_sap_16_mot_HHH_b2_08265_af2_000000206_0001_22_38_H_._HHH_b1_07741_af2_0001_0000300015_0000001_1_0001 (protein)
chain: SSSSSDELEERVEELLEEAKKIEDPARRAHVMIQAYALANRLNDPELEEEVREVARELVSSSSSS
B6: il10ra_site1_sap_16_mot_HHH_b1_00563_000000253_0001_39_52_H_._HHH_b1_07572_af2_0001_0000400013_0000001_0_0001 (protein)
chain: SSSSSSEEEERAEELIEEAKEIPDPREFVEALQRAVRLAFRANDEELLRRIWELLREFADSSSSS
B7: il10ra_site1_sap_23_mot_HHH_b1_02232_000000288_0001_23_39_H_._HHH_b1_07306_af2_0001_0000100001_0000003_0_0001 (protein)
chain: SSSSSDEEEEEFKELAREAEEAKNADERYEIIKRLIEIASELNNEELEELVHRIIRKLLRSSSSS
B8: il10ra_site1_sap_28_mot_HHH_b2_01776_000000118_0001_38_52_H_._HHH_b1_02755_0001_0000100001_0000001_0_0001_af2pred_0001 (protein)
chain: SSSSDEELLEHLLRALKQVVELGDEERAKLTIKFIKRLAELHNDEEVEKRLRELEELVEELSSSS
B9: il10ra_site1_normal_mot_HHH_b1_06994_000000193_0001_40_55_H_._HHH_b1_02695_0001_0000600075_0000002_0 (protein)
chain: SSSSDLEELVRAALILAEQAVKNGDPRAARRLLEALLEALEKDNDPELVRLVEELLEEIRGSSSS
B10: il10ra_site1_normal_mot_HHH_b1_08697_af2_000000298_0001_1_18_H_._HHH_b1_03920_0001_0000300021_0000001_0_af2pred_0001 (protein)
chain: SSSSSKSEIAARFHAEILELALEAGDEESIRAARRALEALAELTNDELARELLEEIREKLSSSSS
B11: il10ra_site1_normal_mot_HHH_b1_06363_000000103_0001_21_38_H_._HHH_b1_06214_af2_0001_0000400025_0000002_0_af2pred_dldesign_0_af2pred (protein)
chain: SSSSSSEKRKEVEELIAEAEKLEDPNKRYELLVKAYALAKEIKDEELVARVTARLRAFSASSSSS
B12: il10ra_site1_normal_mot_HHH_b1_05185_000000011_0001_22_39_H_._HHH_b1_02178_0001_0000100004_0000001_0_1_af2pred_dldesign_0_af2pred (protein)
chain: SSSSEELKERALRGLDTLHRARDPEALRRAAEYYAAQLEAAGYPEEAKEVLDRAEALLAELSSSS
B13: il10ra_site1_sap_29_mot_HHH_b1_04693_000000238_0001_19_36_H_._cdd71eb80049a0ee137549ea9904a389_0001_0001_0000400011_0000001_0_0001 (protein)
chain: SSSSDVEEEVERLLREAEQLAEEGDPEKVSRLLQEAVHFAWRRSNEELLREVWEVVKRLASSSSS
B14: il10ra_site1_normal_mot_6bb093d23f5042b6c551c363657da53b_0001_1_000000153_0001_51_65_H_._HHH_b2_03328_0001_0000100004_0000001_0 (protein)
chain: SSSSDEEEEEVRRLYEEVERLLEEGNPEEALEVLVHLSRLAVEINDPEATKLVLELAELLKSSSS
B15: il10ra_site1_sap_13_mot_HHH_b2_00134_af2_000000004_0001_38_52_H_._35c8b62d970cef76564607aec484dc10_0001_1_0001_0001000013_0000001_0_0001_af2pred_0001 (protein)
chain: TLEILVRFALENGNPEALRFLLELLLREAKQAGDEKTEELIEEALEALEEGDPERVRELVERVLK
B16: il10ra_site1_normal_mot_HHH_b2_07144_000000289_0001_1_18_H_._HHH_b1_08504_0001_0000100005_0000001_0 (protein)
chain: SSSSDESQELYELSRRAAELLREGNPEEAREVVQEAIELAEEINNEVVLHNLEYLLRELESSSSS
B17: il10ra_site1_normal_mot_HHH_b1_01821_000000158_0001_23_39_H_._HHH_b1_08068_af2_0001_0000400011_0000002_0 (protein)
chain: SSSSSDEEEKVRELLEEAEEIEDHEERLEVLLEALRLAIELQNPELLQLVWEVFRRLAGSSSSSS
B18: il10ra_site1_sap_12_mot_HHH_b1_03031_af2_000000117_0001_17_33_H_._91cf7d669ae9415c4ca5d6db8d18144b_0001_af2_0001_0000100002_0000002_0_0001_af2pred_0001 (protein)
chain: SSSSDEERLEELLEILKELVEKNDEERFKEVYHEAMELAIKLRDEEALYELTRLFALLNTSSSSS
B19: il10ra_site1_sap_22_mot_HHH_b1_02062_000000185_0001_1_20_H_._HHH_b1_03051_af2_0001_0000200007_0000001_0_0001 (protein)
chain: SSSSDEVEEEIYRLIMAIARAMIRGDEERVKELLEELEELAEELNDPVARHALKIVRNALSSSSS
B20: il10ra_site1_sap_21_mot_cff26900b2948c323735a169404cbef0_0001_1_000000271_0001_18_33_H_._3f00252fc529791599e8cc5ffc065fdd_0001_0001_0000500019_0000002_0_0001_af … (protein)
chain: SSSSTNERITELIRKAAEAYGAGKPEEALALLNEAKALADAEGIKSYQPTIDYLLSQVALASSSS
B21: il10ra_site1_sap_14_mot_HHH_b2_00943_af2_000000149_0001_1_17_H_._HHH_b1_07595_0001_0000100001_0000001_0_0001 (protein)
chain: SSSSSDETHELYRLLKEAMELAAEGNPEEAREVLEEAEELAREAGDRVLLVVIETVLRRISSSSS
B22: il10ra_site1_sap_15_mot_HHH_b1_06256_000000091_0001_42_58_H_._ems_3hM_3301_0001_0000100003_0000002_0_0001 (protein)
chain: SSSSSSEEEEIEELLKEAEELGKEEAERAARALLEAAERGLVSEELARAALRLLRQQVKWSSSSS
B23: il10ra_site1_normal_mot_HHH_b1_02062_000000185_0001_1_20_H_._HHH_b2_01378_0001_0000100004_0000001_1 (protein)
chain: SSSSDEEREVYELSREAAELNSEGDPEEARKVLEEAKEIAEEINNELLLFQLEFLERIVNSSSSS
B24: il10ra_site1_sap_15_mot_05ca327611f5605f0dd8494b449afcbf_0001_1_000000248_0001_35_51_H_._HHH_b1_07234_af2_0001_0000300013_0000001_0_0001 (protein)
chain: SSSSDEEAREAYELSREAVELDSDGNREEAEEVAEEAERLAKEAGNRVVLVVIRWLLRRIGSSSS

Molecular target: il10ra, Q13651
Assay: yeast display titration

Apparent Kd, inactive:
B1 no binding seen
B2 no binding seen
B3 no binding seen
B4 no binding seen
B5 no binding seen
B6 no binding seen
B7 no binding seen
B8 no binding seen
B9 no binding seen
B10 no binding seen
B11 no binding seen
B12 no binding seen
B13 no binding seen
B14 no binding seen
B15 no binding seen
B16 no binding seen
B17 no binding seen
B18 no binding seen
B19 no binding seen
B20 no binding seen
B21 no binding seen
B22 no binding seen
B23 no binding seen
B24 no binding seen

4 successive entries out of the list so far:
Apparent Kd, inactive:
B20 no binding seen
B21 no binding seen
B22 no binding seen
B23 no binding seen

From paper PMC10163288
